From publication PMC9256752 come the findings set out here.

The chains behind the UniProt entries cited, without tags or fusion partners.
UniProt Q92769: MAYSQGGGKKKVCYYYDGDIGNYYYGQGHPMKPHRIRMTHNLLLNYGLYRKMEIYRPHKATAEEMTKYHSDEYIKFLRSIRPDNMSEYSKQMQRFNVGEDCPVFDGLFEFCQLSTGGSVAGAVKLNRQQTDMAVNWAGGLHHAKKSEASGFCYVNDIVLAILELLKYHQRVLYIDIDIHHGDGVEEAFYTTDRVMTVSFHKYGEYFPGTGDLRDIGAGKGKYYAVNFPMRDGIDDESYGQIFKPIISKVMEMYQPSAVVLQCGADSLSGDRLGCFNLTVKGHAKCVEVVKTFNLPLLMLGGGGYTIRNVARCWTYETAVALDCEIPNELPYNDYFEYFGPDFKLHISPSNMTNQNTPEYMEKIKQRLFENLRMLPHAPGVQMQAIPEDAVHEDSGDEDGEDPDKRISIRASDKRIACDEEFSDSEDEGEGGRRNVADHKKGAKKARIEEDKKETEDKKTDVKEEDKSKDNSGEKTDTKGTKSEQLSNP

These are yes or no findings as the source states them, for the method shown. In cells and extracts the contact can be indirect. Some entries that bind do so weakly or less than the wild type.

The target of test [1] is T1, FOXA3 (human (in human HCC cells SMMC-7721 and Huh7)) (UniProt P55318).
T1 sequence: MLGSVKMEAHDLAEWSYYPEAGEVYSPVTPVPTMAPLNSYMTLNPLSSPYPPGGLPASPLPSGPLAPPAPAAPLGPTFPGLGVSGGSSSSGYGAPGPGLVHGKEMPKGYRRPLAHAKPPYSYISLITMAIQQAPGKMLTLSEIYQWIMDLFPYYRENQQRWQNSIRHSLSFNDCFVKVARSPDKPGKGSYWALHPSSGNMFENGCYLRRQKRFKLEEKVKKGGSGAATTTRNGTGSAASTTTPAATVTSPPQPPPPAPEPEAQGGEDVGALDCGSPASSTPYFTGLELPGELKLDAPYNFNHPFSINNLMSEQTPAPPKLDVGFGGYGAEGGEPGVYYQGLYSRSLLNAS
In words: co-IP; in HCC cells; also after transfection of sh1-DACT3-AS1 (knock-down of lncRNA DACT3-AS1 weakened the binding); no method section for the co-IP.

Test [2] concerns the target T1, FOXA3 (human (in human HCC cells SMMC-7721 and Huh7)). As to the kind of experiment: pull-down; GST fusion probe protein added to cell lysates, 4 °C for 2 h, isolated on glutathione-coated beads; which partner was the GST fusion is not stated; also with lysates of cells transfected with sh1-DACT3-AS1 (binding weakened); only the target purified.

Regarding HDAC2 (from UniProt Q92769 1-488), the binding result in test [1] and in test [2] was “binds” each time.
